Assay results published in publication doi:10.1101/205914.
No constants are given. Whether binding was seen depends on the method and setting. Some results given as binding are weak or reduced against the parent protein; the word gives no strength. Tags and fused reporters may be left off the sequences shown.

By UniProt entry, the sequences of proteins in these tests, tags left out. Where a name states a change or a piece, a line headed by the entry shows the natural chain unless it says otherwise.
UniProt P32908: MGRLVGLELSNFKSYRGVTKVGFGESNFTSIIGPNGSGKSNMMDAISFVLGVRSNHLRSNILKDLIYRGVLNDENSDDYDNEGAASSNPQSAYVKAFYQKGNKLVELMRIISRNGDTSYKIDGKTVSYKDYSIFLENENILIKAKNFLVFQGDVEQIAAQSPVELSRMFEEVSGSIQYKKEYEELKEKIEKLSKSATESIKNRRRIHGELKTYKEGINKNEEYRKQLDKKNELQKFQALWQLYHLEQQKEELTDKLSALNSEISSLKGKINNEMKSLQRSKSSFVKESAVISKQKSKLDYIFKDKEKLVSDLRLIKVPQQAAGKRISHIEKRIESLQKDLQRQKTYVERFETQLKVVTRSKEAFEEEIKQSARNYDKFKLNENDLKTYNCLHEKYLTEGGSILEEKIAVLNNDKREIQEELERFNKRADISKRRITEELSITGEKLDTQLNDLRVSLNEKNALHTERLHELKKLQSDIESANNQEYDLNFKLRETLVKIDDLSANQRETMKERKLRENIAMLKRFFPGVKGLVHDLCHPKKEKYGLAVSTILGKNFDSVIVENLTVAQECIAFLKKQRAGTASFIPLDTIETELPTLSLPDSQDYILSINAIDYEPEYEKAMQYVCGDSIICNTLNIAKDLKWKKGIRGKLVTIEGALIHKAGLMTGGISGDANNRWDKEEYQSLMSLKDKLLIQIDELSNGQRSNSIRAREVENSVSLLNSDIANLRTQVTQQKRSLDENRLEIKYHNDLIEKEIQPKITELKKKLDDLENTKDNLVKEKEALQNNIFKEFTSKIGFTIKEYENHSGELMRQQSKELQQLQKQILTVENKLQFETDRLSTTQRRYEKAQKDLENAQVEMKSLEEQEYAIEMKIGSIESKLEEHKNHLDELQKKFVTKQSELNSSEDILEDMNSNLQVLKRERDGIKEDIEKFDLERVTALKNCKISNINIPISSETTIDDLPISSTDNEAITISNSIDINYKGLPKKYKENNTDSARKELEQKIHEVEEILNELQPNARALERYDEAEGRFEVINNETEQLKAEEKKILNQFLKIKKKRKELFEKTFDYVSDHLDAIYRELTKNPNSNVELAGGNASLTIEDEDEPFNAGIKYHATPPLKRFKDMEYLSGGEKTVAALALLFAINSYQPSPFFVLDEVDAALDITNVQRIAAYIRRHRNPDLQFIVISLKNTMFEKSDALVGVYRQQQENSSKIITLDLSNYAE
UniProt Q12158: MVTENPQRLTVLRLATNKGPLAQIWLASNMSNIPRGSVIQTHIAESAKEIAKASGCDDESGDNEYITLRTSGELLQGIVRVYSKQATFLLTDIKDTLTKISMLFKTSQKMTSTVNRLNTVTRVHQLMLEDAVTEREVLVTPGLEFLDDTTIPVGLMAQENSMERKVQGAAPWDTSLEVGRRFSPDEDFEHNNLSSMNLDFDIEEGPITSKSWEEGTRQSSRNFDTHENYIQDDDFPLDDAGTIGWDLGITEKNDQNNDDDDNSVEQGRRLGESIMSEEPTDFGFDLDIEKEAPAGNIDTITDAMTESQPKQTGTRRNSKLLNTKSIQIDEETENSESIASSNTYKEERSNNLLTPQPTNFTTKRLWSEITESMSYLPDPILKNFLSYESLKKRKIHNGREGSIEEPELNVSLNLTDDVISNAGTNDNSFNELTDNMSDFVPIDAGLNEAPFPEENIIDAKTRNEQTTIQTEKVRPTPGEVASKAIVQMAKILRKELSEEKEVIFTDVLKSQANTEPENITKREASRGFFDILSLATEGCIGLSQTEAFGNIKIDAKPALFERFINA

T1: GFP-ΔN132-Scc2-1xStrepII (S. cerevisiae) (UniProt Q04002)
T1 sequence: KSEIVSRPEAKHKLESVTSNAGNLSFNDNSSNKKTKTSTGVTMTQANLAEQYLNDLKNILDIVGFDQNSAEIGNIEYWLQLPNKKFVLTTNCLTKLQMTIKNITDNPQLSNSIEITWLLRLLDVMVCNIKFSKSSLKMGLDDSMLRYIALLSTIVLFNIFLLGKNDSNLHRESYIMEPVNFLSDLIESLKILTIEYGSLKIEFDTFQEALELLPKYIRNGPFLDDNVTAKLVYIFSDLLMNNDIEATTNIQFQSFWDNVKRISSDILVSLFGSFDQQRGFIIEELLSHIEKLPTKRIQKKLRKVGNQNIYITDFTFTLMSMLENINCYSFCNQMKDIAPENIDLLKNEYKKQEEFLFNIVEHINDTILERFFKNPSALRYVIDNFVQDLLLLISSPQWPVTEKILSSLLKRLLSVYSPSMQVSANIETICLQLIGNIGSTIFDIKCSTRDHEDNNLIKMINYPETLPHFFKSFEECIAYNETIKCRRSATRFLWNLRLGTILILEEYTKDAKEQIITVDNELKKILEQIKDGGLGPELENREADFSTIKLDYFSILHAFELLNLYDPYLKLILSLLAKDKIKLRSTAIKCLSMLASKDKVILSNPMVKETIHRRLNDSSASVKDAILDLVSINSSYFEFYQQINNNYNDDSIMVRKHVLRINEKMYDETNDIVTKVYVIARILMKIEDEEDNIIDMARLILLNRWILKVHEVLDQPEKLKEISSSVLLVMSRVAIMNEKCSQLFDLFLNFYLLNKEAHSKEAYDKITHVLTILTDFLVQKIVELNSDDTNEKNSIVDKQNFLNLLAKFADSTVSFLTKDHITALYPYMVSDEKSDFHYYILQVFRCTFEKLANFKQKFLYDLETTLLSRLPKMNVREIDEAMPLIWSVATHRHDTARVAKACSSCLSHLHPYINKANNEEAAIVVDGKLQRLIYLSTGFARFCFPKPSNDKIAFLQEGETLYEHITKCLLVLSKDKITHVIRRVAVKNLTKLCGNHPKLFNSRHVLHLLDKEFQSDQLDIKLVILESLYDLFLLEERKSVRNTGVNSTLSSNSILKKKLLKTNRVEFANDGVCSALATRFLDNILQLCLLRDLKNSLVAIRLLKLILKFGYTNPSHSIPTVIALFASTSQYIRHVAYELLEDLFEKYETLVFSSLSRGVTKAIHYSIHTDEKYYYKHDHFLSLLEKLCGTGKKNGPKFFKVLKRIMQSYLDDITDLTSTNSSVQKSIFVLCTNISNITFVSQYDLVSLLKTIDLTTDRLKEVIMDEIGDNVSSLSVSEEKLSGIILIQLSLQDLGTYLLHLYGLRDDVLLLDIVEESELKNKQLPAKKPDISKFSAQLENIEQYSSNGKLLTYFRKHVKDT

T2: Scc3-TetR (S. cerevisiae) (UniProt P40541)
T2 sequence: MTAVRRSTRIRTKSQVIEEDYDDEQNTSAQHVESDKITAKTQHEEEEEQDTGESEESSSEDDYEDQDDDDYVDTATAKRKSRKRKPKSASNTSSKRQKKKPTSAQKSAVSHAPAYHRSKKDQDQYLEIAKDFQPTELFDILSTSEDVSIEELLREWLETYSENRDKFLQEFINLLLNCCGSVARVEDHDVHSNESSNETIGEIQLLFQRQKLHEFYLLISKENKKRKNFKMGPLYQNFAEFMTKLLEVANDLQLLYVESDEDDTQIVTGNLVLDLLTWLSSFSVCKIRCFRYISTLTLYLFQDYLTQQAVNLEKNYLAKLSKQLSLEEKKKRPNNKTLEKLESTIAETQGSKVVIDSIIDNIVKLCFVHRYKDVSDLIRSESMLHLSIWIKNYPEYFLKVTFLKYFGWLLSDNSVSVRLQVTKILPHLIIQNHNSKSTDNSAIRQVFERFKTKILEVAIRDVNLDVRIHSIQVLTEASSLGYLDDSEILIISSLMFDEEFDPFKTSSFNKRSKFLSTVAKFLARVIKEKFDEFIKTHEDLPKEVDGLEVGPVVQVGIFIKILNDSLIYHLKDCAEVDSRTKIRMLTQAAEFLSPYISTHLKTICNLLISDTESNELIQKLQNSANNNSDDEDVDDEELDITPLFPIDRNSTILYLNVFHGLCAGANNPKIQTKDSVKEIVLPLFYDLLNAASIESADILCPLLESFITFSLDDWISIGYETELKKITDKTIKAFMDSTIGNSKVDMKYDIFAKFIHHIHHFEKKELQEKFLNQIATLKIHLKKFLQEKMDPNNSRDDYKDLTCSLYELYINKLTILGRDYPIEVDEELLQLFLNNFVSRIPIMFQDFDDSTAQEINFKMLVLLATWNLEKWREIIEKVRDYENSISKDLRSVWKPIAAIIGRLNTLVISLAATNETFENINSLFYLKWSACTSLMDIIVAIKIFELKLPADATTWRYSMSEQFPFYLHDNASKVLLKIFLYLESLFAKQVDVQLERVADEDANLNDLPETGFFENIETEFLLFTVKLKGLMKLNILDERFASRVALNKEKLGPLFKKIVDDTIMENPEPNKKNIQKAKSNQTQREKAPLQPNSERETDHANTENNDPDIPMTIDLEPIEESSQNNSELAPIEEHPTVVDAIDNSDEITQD


Legend:
[1] = molecular target: T1, GFP-ΔN132-Scc2-1xStrepII (S. cerevisiae); assay: pull-down
[2] = molecular target: T2, Scc3-TetR (S. cerevisiae); assay: tethering to Tet operators, read by calibrated ChIP-qPCR

Molecule | binding [1] | binding [2]
cohesin tetramer containing scc1Δ152-256 (from UniProt P32908;P47037;Q12158;P40541) (complex) | binds | 
cohesin tetramer (Smc1, Smc3, Scc1, Scc3) (from UniProt P32908;P47037;Q12158;P40541) (complex) | binds | 
PK6-tagged Smc3 (protein, UniProt P47037 1-1230) MYIKRVIIKGFKTYRNETIIDNFSPHQNVIIGSNGSGKSNFFAAIRFVLSDDYSNLKREERQGLIHQGSGGSVMSASVEIVFHDPDHSMILPSGVLSRGDDEVTIRRTVGLKKDDYQLNDRNVTKGDIVRMLETAGFSMNNPYNIVPQGKIVALTNAKDKERLQLLEDVVGAKSFEVKLKASLKKMEETEQKKIQINKEMGELNSKLSEMEQERKELEKYNELERNRKIYQFTLYDRELNEVINQMERLDGDYNNTVYSSEQYIQELDKREDMIDQVSKKLSSIEASLKIKNATDLQQAKLRESEISQKLTNVNVKIKDVQQQIESNEEQRNLDSATLKEIKSIIEQRKQKLSKILPRYQELTKEEAMYKLQLASLQQKQRDLILKKGEYARFKSKDERDTWIHSEIEELKSSIQNLNELESQLQMDRTSLRKQYSAIDEEIEELIDSINGPDTKGQLEDFDSELIHLKQKLSESLDTRKELWRKEQKLQTVLETLLSDVNQNQRNVNETMSRSLANGIINVKEITEKLKISPESVFGTLGELIKVNDKYKTCAEVIGGNSLFHIVVDTEETATLIMNELYRMKGGRVTFIPLNRLSLDSDVKFPSNTTTQIQFTPLIKKIKYEPRFEKAVKHVFGKTIVVKDLGQGLKLAKKHKLNAITLDGDRADKRGVLTGGYLDQHKRTRLESLKNLNESRSQHKKILEELDFVRNELNDIDTKIDQVNGNIRKVSNDRESVLTNIEVYRTSLNTKKNEKLILEESLNAIILKLEKLNTNRTFAQEKLNTFENDLLQEFDSELSKEEKERLESLTKEISAAHNKLNITSDALEGITTTIDSLNAELESKLIPQENDLESKMSEVGDAFIFGLQDELKELQLEKESVEKQHENAVLELGTVQREIESLIAEETNNKKLLEKANNQQRLLLKKLDNFQKSVEKTMIKKTTLVTRREELQQRIREIGLLPEDALVNDFSDITSDQLLQRLNDMNTEISGLKNVNKRAFENFKKFNERRKDLAERASELDESKDSIQDLIVKLKQQKVNAVDSTFQKVSENFEAVFERLVPRGTAKLIIHRKNDNANDHDESIDVDMDAESNESQNGKDSEIMYTGVSISVSFNSKQNEQLHVEQLSGGQKTVCAIALILAIQMVDPASFYLFDEIDAALDKQYRTAVATLLKELSKNAQFICTTFRTDMLQVADKFFRVKYENKISTVIEVNREEAIGFIRGSNKFAEV |  | binds

The remaining lines, values ahead:

binding [1] | binding [2] | Molecule
 | binds | PK6-tagged Smc3E1155Q (protein, UniProt P47037 1-1230) MYIKRVIIKGFKTYRNETIIDNFSPHQNVIIGSNGSGKSNFFAAIRFVLSDDYSNLKREERQGLIHQGSGGSVMSASVEIVFHDPDHSMILPSGVLSRGDDEVTIRRTVGLKKDDYQLNDRNVTKGDIVRMLETAGFSMNNPYNIVPQGKIVALTNAKDKERLQLLEDVVGAKSFEVKLKASLKKMEETEQKKIQINKEMGELNSKLSEMEQERKELEKYNELERNRKIYQFTLYDRELNEVINQMERLDGDYNNTVYSSEQYIQELDKREDMIDQVSKKLSSIEASLKIKNATDLQQAKLRESEISQKLTNVNVKIKDVQQQIESNEEQRNLDSATLKEIKSIIEQRKQKLSKILPRYQELTKEEAMYKLQLASLQQKQRDLILKKGEYARFKSKDERDTWIHSEIEELKSSIQNLNELESQLQMDRTSLRKQYSAIDEEIEELIDSINGPDTKGQLEDFDSELIHLKQKLSESLDTRKELWRKEQKLQTVLETLLSDVNQNQRNVNETMSRSLANGIINVKEITEKLKISPESVFGTLGELIKVNDKYKTCAEVIGGNSLFHIVVDTEETATLIMNELYRMKGGRVTFIPLNRLSLDSDVKFPSNTTTQIQFTPLIKKIKYEPRFEKAVKHVFGKTIVVKDLGQGLKLAKKHKLNAITLDGDRADKRGVLTGGYLDQHKRTRLESLKNLNESRSQHKKILEELDFVRNELNDIDTKIDQVNGNIRKVSNDRESVLTNIEVYRTSLNTKKNEKLILEESLNAIILKLEKLNTNRTFAQEKLNTFENDLLQEFDSELSKEEKERLESLTKEISAAHNKLNITSDALEGITTTIDSLNAELESKLIPQENDLESKMSEVGDAFIFGLQDELKELQLEKESVEKQHENAVLELGTVQREIESLIAEETNNKKLLEKANNQQRLLLKKLDNFQKSVEKTMIKKTTLVTRREELQQRIREIGLLPEDALVNDFSDITSDQLLQRLNDMNTEISGLKNVNKRAFENFKKFNERRKDLAERASELDESKDSIQDLIVKLKQQKVNAVDSTFQKVSENFEAVFERLVPRGTAKLIIHRKNDNANDHDESIDVDMDAESNESQNGKDSEIMYTGVSISVSFNSKQNEQLHVEQLSGGQKTVCAIALILAIQMVDPASFYLFDQIDAALDKQYRTAVATLLKELSKNAQFICTTFRTDMLQVADKFFRVKYENKISTVIEVNREEAIGFIRGSNKFAEV
 | binds | PK6-tagged Smc3K38I (protein, UniProt P47037 1-1230) MYIKRVIIKGFKTYRNETIIDNFSPHQNVIIGSNGSGISNFFAAIRFVLSDDYSNLKREERQGLIHQGSGGSVMSASVEIVFHDPDHSMILPSGVLSRGDDEVTIRRTVGLKKDDYQLNDRNVTKGDIVRMLETAGFSMNNPYNIVPQGKIVALTNAKDKERLQLLEDVVGAKSFEVKLKASLKKMEETEQKKIQINKEMGELNSKLSEMEQERKELEKYNELERNRKIYQFTLYDRELNEVINQMERLDGDYNNTVYSSEQYIQELDKREDMIDQVSKKLSSIEASLKIKNATDLQQAKLRESEISQKLTNVNVKIKDVQQQIESNEEQRNLDSATLKEIKSIIEQRKQKLSKILPRYQELTKEEAMYKLQLASLQQKQRDLILKKGEYARFKSKDERDTWIHSEIEELKSSIQNLNELESQLQMDRTSLRKQYSAIDEEIEELIDSINGPDTKGQLEDFDSELIHLKQKLSESLDTRKELWRKEQKLQTVLETLLSDVNQNQRNVNETMSRSLANGIINVKEITEKLKISPESVFGTLGELIKVNDKYKTCAEVIGGNSLFHIVVDTEETATLIMNELYRMKGGRVTFIPLNRLSLDSDVKFPSNTTTQIQFTPLIKKIKYEPRFEKAVKHVFGKTIVVKDLGQGLKLAKKHKLNAITLDGDRADKRGVLTGGYLDQHKRTRLESLKNLNESRSQHKKILEELDFVRNELNDIDTKIDQVNGNIRKVSNDRESVLTNIEVYRTSLNTKKNEKLILEESLNAIILKLEKLNTNRTFAQEKLNTFENDLLQEFDSELSKEEKERLESLTKEISAAHNKLNITSDALEGITTTIDSLNAELESKLIPQENDLESKMSEVGDAFIFGLQDELKELQLEKESVEKQHENAVLELGTVQREIESLIAEETNNKKLLEKANNQQRLLLKKLDNFQKSVEKTMIKKTTLVTRREELQQRIREIGLLPEDALVNDFSDITSDQLLQRLNDMNTEISGLKNVNKRAFENFKKFNERRKDLAERASELDESKDSIQDLIVKLKQQKVNAVDSTFQKVSENFEAVFERLVPRGTAKLIIHRKNDNANDHDESIDVDMDAESNESQNGKDSEIMYTGVSISVSFNSKQNEQLHVEQLSGGQKTVCAIALILAIQMVDPASFYLFDEIDAALDKQYRTAVATLLKELSKNAQFICTTFRTDMLQVADKFFRVKYENKISTVIEVNREEAIGFIRGSNKFAEV
